The values that follow come from PubChem BioAssay AID662 (National Center for Advancing Translational Sciences (NCATS), 2007).

The other results are listed elsewhere or left out. These are further read-outs of the screen, such as a control signal, another cell line or another target. No call is given for them. Most of these compounds were active or inconclusive in the main read-out, so they are no random draw. Words in brackets tell the shape of the fitted curve; partial curves, single points and poor fits give uncertain potencies.

A short description of this test: Cell signaling CRE-BLA (Fsk stim). The conditions noted are these: CHO CRE-bla reporter (cAMP response element driving beta-lactamase), forskolin EC10, beta-lactamase ratio; measured here: 460 nm blue channel. In a few lines: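 CRE-bla CHO reporter cells treated with compound titration plus EC10 NKH 477 (water-soluble forskolin), incubated 3 h at 37 °C; CCF4 loading 2 h at room temperature, 460/530 nm emission ratio read, AC50 values derived for positive or negative modulators.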
Regarding `O=C(NCc1ccncc1)c1ccc(Br)cc1`, the AC50 (commonly the concentration at which the activity in the assay is half-maximal) is 1 µM [rising, single point].

Turning to `COc1ccc(-n2nc3cc(C)c(N)c(Br)c3n2)cc1`, the AC50 was 25.1 µM [rising, single point].

With `O=C(NC1CCCCC1)C(c1ccco1)N(Cc1cccs1)C(=O)Cn1nnc2ccccc21` (stereo not drawn), the AC50 was 0.00398 µM [falling, full curve, poor fit].

For `CCCCCn1c(S(=O)(=O)O)nc2ccccc21`, the AC50 was 0.398 µM [falling, partial curve].

With `Cc1ccc(C2CC(=O)N3CN(c4ccc(Br)cc4)CSC3=C2C#N)o1` (stereo not drawn), the AC50 is 25.1 µM [falling, partial curve].

Regarding `Cc1cc(NC(=O)c2sccc2C)n(-c2cccc(Cl)c2)n1`, the AC50 is 7.94 µM [rising, partial curve].

`CC(C)Cn1c(=O)c2c(nc3n2CCCN3CCc2ccccc2)n(C)c1=O`: the half-maximal activity concentration (AC50) is 6.31 µM [rising, partial curve].

Consider `O=C1CC(c2ccccc2)Cc2nc(NCc3ccco3)ncc21` (stereo not drawn), for which the AC50 is 25.1 µM [falling, single point].

With `Cc1cnc(CNc2ncnc3ccc(-c4ccccc4Cl)cc23)cn1`, the AC50 was 5.01 µM [falling, single point].

For `Cc1ccc(NC(=O)Cn2nnc(C(=O)Nc3ccc(C)c(C)c3)c2N)cc1`, the AC50 is 25.1 µM [falling, single point].

For the molecule `CCOc1ccc(NS(=O)(=O)c2ccc3[nH]cc(C(=O)N(CC)CC)c(=O)c3c2)cc1`, the AC50 is 12.6 µM [falling, partial curve, poor fit].

With `c1coc(-c2nc3nc4ccccc4nc3n2CC2CCCO2)c1` (stereo not drawn), the AC50 is 15.8 µM [rising, partial curve].

Turning to `CCC(=O)N1CCc2cc(S(=O)(=O)CCC(=O)NCCC3=CCCCC3)ccc21`, the AC50 was 25.1 µM [rising, single point].

For the molecule `O=c1cc(N2CCOCC2)[nH]c(=O)n1C1CCCCC1`, the AC50 was 3.98 µM [falling, single point].

As to `CN1CCCc2cc3c(C(F)(F)F)cc(=O)oc3nc21`, the AC50 is 10 µM [rising, partial curve].

On to `Cc1nnc2sc(-c3ccc(NC(=O)c4ccc(-c5ccc(Br)cc5)o4)cc3)nn12`, for which the AC50 is 12.6 µM [rising, single point].

With `CCC1(CC)C(=O)NC(=O)NC1=Nc1cccc(OC)c1`, the AC50 was 3.16 µM [falling, full curve].

For the molecule `CCc1c(C)nc2ncnn2c1NCCc1ccc(OC)cc1`, the AC50 is 10 µM [rising, partial curve].

On to `CCCc1cc(C(=O)Nc2sc3c(c2C#N)CCC3)no1`, for which the concentration at half-maximal activity (AC50) was 10 µM [rising, partial curve].

As to `Cc1cc(=O)n2nc(N3CCC(C(=O)NCc4cccnc4)CC3)sc2n1`, the AC50 is 25.1 µM [rising, single point].

As to `O=c1oc2ccccc2c2c1ncn2C1CCCCC1`, the AC50 is 12.6 µM [rising, partial curve].

With `COC(=O)c1[nH]c2cc(C)ccc2c1NC(=O)CN1CCN(c2ccccc2OC)CC1`, the AC50 is 20 µM [falling, partial curve, poor fit].

As for `COC(=O)C1=C(CN2CCCc3ccccc32)NC(=O)NC1c1ccc(F)cc1` (stereo not drawn), the AC50 is 6.31 µM [rising, partial curve].

With `O=C(NCc1cccs1)c1cccc(S(=O)(=O)N2CCCCC2)c1`, the AC50 was 3.98 µM [falling, partial curve, poor fit].

As for `COc1ccccc1NC(=O)CN1C(=O)CCS(=O)(=O)c2ccccc21`, the AC50 is 0.2 µM [falling, full curve].

Regarding `CCC(=O)Nc1ccc(S(=O)(=O)Nc2cccc(C)c2)cc1OC`, the AC50 was 0.316 µM [rising, full curve].

On to `Cc1onc(-c2ccccc2Cl)c1C(=O)N1CC(C)OC(C)C1` (stereo not drawn), for which the AC50 was 3.16 µM [falling, full curve].

Turning to `COCCn1c(=O)c(-c2cccc(C#N)c2)nc2cnc(N(C)C)nc21`, the AC50 is 15.8 µM [rising, partial curve].

As for `Cc1cc(N2CCOCC2)nc(SCC(=O)c2ccc(Cl)cc2)n1`, the AC50 is 10 µM [rising, partial curve].

For `COc1ccc(NC(=O)N(C2CCCCC2)C(C)c2cccnc2)c(OC)c1` (stereo not drawn), the AC50 is 0.2 µM [falling, full curve].

For `CCOC(=O)CSc1nc2c(sc3ccccc32)c(=O)n1CCCN1CCOCC1`, the AC50 is 25.1 µM [rising, single point].

On to `CC(OC(=O)C1CCN(S(=O)(=O)c2ccccc2)CC1)C(=O)Nc1ncc(Cl)cc1Cl` (stereo not drawn), for which the AC50 is 3.98 µM [rising, single point].

For `CSc1nnc2c(n1)[nH]c1c(C)cccc12`, the AC50 was 10 µM [rising, partial curve].

Regarding `CC(=O)Oc1cccc(N2C(=O)C3C4C=CC(C4)C3C2=O)c1` (stereo not drawn), the AC50 was 0.398 µM [rising, partial curve].

As for `COCCn1c(N)c(S(=O)(=O)c2cccs2)c2nc3ccccc3nc21`, the concentration at half-maximal activity (AC50) is 10 µM [rising, partial curve].

For the molecule `O=C(Nc1ccc(F)cc1F)c1cccnc1`, the AC50 was 3.98 µM [falling, partial curve].

For the molecule `CC(C)NC[C@H](O)COc1cccc2[nH]ccc12`, the AC50 is 31.6 µM [falling, partial curve, poor fit].

As for `Cc1onc(-c2ccccc2)c1C(=O)Nc1ccccc1N1CCOCC1`, the AC50 is 20 µM [rising, single point].

With `COC(=O)c1cn(NC(=O)c2ccc3c(c2)OCO3)c(=O)c2ccccc12`, the AC50 is 0.00398 µM [falling, full curve, poor fit].

With `COc1ccc(S(=O)(=O)N2CCN(CC(=O)Nc3ccc(F)c(F)c3)CC2)cc1`, the half-maximal activity concentration (AC50) was 0.0316 µM [falling, full curve].

Turning to `CC(C)CCNC(=O)c1cnn2c(C(F)(F)F)cc(-c3ccco3)nc12`, the AC50 was 1.58 µM [rising, partial curve].

As to `O=C(Cc1ccccc1)Nc1nc2ccc(Cl)cc2c2nc(-c3ccco3)nn12`, the AC50 was 50.1 µM [rising, partial curve, poor fit].

As for `CCCN1C(=O)SC(CC(=O)Nc2ccccc2)C1=O` (stereo not drawn), the AC50 is 0.316 µM [falling, partial curve, poor fit].

As to `CCOc1ccccc1Nc1nnc(C)c(=O)[nH]1`, the AC50 was 25.1 µM [falling, single point].

Regarding `Cc1ccccc1-n1c(=O)cc(N2CCc3ccccc3C2)[nH]c1=O`, the AC50 was 2.51 µM [falling, single point].

For the molecule `O=C(O)C1CC=C(Cl)CC1C(=O)NCC1OCCc2ccccc21` (stereo not drawn), the concentration at half-maximal activity (AC50) was 0.398 µM [falling, full curve, poor fit].

In the case of `CCOc1ccccc1-c1nn2c(Cc3ccccc3)nnc2s1`, the AC50 is 10 µM [rising, partial curve].

As to `CCCCn1cnc2cc(NCc3cccc(OC)c3O)ccc21`, the AC50 is 15.8 µM [falling, partial curve, poor fit].

Consider `Oc1ccc(Br)cc1/C=N/n1cnc2ccccc21`, for which the AC50 was 0.00398 µM [falling, full curve, poor fit].

For the molecule `COCC(=O)N(Cc1cc2cc(OC)ccc2[nH]c1=O)c1ccccc1`, the AC50 is 7.94 µM [rising, partial curve].

In the case of `CCCCNc1ncnc2c1cnn2-c1ccccc1`, the half-maximal activity concentration (AC50) was 12.6 µM [rising, partial curve].

As for `Cc1cc(NC(=O)CSc2nnc(-c3ccc4c(c3)OCCO4)o2)no1`, the half-maximal activity concentration (AC50) is 10 µM [falling, partial curve].

On to `C1=CC2c3ccccc3NC(c3ccncc3)C2C1` (stereo not drawn), for which the AC50 was 10 µM [rising, single point].

For `COc1ccc2cc(CCNC(=O)c3ccc(Br)o3)c(=O)[nH]c2c1`, the half-maximal activity concentration (AC50) was 12.6 µM [rising, single point].

Take `CCOC(=O)C1CCCN(C(=O)c2sc3nc(-c4ccc(F)cc4)cn3c2C)C1` (stereo not drawn): the AC50 was 1.26 µM [rising, full curve, poor fit].

In the case of `CCOC(=O)N1CCC(NC(=O)c2cccn3c(=O)c4cc(Br)ccc4nc23)CC1`, the AC50 was 12.6 µM [rising, single point].

Take `COc1ccc(O)c(C2NC(CC(C)C)(C(=O)O)C3C(=O)N(Cc4ccccc4)C(=O)C23)c1` (stereo not drawn): the AC50 was 25.1 µM [falling, single point].

Regarding `Cc1ccc(C(C(=O)NC2CCCC2)N(Cc2ccco2)C(=O)CCC(=O)Nc2ccccn2)cc1` (stereo not drawn), the AC50 was 3.98 µM [falling, partial curve].

As for `O=C(CCCCCNS(=O)(=O)c1ccc(Br)cc1)NCCN1CCOCC1`, the AC50 is 2 µM [falling, partial curve].

Turning to `Cc1ccc(-n2nnc3c(=O)n(Cc4ccccc4C)cnc32)cc1`, the concentration at half-maximal activity (AC50) is 12.6 µM [rising, partial curve].

In the case of `COc1ccc(-c2cc(-c3ccccc3O)[nH]n2)cc1OC`, the AC50 is 15.8 µM [falling, single point].

Consider `COc1ccccc1OCCSc1nnc(C)n1-c1ccccc1`, for which the AC50 is 1.58 µM [rising, partial curve].

On to `COCCNC(=O)c1cc2c(=O)n(C)c3ccccc3c2n1C`, for which the half-maximal activity concentration (AC50) was 7.94 µM [rising, partial curve].

As to `CCOCCCn1c(C)nc2c(c1=O)c1nc3ccccc3nc1n2CCC1=CCCCC1`, the concentration at half-maximal activity (AC50) was 10 µM [rising, partial curve].

For `COc1ccc(NC(=O)c2ccc(-n3nc(C)c[n+]3[O-])cc2)cc1`, the AC50 was 25.1 µM [rising, single point].

In the case of `COc1cccc(-c2cc3nc(-c4ccccc4)cc(N4CCC5(CC4)OCCO5)n3n2)c1`, the AC50 was 3.16 µM [rising, full curve].

Consider `Cc1nc2cnc(Nc3ccccc3)nc2n(CCC#N)c1=O`, for which the AC50 is 1 µM [rising, full curve].

Take `COc1cccc(-c2cc(NCc3ccc(OC)cc3OC)ncn2)c1`: the AC50 was 7.94 µM [rising, partial curve].
